Reference: the supplement of paper PMC10849652
The other results are listed elsewhere or left out.

Sequences of proteins named here, by UniProt entry; tags and fusion partners are left off. A change or cut given only in a name is not applied to a line headed by its entry.
UniProt Q9GZV4: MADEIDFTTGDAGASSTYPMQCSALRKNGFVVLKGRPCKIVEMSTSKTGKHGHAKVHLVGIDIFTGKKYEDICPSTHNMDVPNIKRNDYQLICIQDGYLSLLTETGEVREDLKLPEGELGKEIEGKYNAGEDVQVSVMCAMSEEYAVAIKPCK
UniProt Q13347, whole entry, looked up: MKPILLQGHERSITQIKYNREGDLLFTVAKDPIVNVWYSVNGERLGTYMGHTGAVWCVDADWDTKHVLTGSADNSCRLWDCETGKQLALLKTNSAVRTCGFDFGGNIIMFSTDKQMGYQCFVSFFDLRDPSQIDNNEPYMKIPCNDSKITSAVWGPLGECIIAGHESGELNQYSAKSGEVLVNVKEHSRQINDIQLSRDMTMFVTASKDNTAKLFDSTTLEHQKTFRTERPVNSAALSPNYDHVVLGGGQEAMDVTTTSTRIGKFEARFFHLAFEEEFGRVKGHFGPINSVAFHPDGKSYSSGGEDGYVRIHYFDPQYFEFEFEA
UniProt Q53HC9: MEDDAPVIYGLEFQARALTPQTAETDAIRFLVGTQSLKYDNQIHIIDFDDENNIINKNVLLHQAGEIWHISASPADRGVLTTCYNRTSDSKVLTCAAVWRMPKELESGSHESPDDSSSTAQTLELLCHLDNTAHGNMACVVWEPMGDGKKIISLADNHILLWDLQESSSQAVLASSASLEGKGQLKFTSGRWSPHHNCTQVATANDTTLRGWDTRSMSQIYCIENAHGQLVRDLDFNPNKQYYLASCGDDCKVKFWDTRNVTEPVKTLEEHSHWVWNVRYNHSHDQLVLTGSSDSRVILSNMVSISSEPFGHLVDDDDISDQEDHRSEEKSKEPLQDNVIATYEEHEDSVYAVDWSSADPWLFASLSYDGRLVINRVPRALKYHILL
UniProt P28715: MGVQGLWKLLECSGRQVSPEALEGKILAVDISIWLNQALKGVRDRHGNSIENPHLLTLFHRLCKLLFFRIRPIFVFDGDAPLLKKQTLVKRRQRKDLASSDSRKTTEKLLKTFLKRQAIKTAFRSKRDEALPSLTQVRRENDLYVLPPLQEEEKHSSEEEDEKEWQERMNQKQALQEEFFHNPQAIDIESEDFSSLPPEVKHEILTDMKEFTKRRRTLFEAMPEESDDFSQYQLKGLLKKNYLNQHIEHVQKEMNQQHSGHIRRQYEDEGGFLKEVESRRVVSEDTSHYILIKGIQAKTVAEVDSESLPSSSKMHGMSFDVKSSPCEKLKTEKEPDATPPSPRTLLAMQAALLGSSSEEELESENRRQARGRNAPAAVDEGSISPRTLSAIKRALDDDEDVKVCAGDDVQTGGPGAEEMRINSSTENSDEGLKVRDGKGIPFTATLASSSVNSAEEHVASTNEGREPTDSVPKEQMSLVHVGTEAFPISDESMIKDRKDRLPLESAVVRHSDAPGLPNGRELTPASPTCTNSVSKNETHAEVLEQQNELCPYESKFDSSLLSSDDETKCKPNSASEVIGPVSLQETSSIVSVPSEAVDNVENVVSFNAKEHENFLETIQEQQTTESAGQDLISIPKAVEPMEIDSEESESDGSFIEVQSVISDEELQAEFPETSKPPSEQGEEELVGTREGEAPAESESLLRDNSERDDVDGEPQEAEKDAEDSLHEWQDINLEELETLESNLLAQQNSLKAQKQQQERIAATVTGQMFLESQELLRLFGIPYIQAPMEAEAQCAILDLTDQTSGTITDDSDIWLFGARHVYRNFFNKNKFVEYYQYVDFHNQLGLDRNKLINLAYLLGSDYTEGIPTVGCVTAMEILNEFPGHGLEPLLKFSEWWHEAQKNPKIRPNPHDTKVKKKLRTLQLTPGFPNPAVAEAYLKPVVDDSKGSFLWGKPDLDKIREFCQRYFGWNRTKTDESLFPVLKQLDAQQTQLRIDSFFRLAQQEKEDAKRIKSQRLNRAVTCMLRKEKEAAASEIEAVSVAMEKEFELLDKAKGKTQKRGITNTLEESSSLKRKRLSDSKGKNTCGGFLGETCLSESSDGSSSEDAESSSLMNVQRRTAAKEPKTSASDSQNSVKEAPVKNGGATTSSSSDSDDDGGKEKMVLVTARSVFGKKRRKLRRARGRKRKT
UniProt Q9NRA8: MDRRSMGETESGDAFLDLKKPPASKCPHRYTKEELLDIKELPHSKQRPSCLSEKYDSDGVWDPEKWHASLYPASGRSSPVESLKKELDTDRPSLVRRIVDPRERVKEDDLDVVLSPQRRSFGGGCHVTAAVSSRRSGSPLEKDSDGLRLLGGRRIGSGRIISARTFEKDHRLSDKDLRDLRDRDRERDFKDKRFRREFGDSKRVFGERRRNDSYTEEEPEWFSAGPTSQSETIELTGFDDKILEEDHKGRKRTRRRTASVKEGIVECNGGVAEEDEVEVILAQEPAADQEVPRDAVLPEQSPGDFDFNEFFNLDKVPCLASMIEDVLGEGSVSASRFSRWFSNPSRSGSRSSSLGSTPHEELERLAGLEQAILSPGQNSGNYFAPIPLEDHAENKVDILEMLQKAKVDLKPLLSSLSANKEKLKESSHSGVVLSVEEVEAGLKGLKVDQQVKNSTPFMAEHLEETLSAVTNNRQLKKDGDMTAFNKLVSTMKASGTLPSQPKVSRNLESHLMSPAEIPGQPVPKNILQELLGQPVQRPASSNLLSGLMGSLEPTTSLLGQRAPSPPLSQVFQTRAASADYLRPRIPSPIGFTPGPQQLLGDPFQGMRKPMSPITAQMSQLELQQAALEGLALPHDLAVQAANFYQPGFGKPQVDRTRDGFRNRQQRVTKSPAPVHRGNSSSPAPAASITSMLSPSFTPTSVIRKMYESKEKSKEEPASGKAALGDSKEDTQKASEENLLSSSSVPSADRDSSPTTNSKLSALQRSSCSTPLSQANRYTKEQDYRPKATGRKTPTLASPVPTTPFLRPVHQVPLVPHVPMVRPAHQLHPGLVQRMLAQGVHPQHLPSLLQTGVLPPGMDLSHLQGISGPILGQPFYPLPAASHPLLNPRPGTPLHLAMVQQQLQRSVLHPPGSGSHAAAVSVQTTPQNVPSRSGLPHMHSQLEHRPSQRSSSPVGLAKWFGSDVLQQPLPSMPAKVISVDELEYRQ
UniProt P06733, whole entry, looked up: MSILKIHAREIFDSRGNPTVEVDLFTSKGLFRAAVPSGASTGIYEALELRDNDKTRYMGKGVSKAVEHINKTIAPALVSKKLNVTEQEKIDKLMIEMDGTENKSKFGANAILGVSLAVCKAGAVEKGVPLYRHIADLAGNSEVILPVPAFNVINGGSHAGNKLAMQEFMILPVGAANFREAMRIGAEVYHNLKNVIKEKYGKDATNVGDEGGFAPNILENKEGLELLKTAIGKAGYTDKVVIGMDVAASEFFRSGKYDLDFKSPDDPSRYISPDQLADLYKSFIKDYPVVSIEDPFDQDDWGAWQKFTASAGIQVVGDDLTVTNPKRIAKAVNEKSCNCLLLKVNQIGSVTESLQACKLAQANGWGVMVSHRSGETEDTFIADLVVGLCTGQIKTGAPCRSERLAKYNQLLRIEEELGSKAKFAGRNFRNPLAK
UniProt Q8TE02: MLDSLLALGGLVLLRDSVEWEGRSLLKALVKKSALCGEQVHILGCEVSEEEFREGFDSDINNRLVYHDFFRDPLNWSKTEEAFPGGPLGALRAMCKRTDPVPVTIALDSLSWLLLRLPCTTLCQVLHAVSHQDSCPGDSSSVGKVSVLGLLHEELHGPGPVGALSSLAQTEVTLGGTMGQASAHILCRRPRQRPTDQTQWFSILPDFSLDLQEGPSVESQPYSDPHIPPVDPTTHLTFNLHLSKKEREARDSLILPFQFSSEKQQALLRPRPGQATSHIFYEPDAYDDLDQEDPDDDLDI
UniProt Q6ZTU2, whole entry, looked up: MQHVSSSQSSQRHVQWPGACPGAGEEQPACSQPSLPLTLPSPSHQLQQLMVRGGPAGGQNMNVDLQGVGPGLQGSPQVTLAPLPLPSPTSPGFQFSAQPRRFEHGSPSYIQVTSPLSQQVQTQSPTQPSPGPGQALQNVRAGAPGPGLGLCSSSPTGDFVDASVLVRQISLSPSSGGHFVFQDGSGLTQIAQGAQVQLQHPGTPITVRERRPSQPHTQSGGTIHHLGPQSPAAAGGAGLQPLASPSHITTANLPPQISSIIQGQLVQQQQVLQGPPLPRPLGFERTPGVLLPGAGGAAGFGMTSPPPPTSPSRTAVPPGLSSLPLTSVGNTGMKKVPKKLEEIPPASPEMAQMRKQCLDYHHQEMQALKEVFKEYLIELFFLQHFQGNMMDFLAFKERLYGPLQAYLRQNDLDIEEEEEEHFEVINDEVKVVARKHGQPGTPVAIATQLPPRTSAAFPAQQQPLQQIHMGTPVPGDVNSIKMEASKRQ
UniProt O75356: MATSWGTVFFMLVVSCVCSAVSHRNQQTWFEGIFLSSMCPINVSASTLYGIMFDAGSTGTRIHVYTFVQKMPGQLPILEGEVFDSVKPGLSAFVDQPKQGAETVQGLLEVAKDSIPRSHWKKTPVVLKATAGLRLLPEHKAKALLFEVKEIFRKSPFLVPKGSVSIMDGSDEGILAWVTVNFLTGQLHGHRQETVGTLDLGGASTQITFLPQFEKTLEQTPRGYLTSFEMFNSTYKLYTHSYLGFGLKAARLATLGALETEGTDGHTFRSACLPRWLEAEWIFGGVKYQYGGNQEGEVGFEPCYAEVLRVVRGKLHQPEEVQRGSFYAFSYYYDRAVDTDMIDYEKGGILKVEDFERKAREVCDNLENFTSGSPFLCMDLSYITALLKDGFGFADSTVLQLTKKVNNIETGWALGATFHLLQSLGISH
UniProt O75822, whole entry, looked up: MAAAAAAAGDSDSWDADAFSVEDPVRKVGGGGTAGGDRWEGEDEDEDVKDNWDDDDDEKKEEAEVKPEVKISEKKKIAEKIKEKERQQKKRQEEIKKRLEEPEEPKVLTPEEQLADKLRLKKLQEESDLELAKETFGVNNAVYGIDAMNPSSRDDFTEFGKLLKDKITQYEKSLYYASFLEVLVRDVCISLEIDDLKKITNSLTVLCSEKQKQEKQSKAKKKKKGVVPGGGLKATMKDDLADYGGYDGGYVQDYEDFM
UniProt Q14152, whole entry, looked up: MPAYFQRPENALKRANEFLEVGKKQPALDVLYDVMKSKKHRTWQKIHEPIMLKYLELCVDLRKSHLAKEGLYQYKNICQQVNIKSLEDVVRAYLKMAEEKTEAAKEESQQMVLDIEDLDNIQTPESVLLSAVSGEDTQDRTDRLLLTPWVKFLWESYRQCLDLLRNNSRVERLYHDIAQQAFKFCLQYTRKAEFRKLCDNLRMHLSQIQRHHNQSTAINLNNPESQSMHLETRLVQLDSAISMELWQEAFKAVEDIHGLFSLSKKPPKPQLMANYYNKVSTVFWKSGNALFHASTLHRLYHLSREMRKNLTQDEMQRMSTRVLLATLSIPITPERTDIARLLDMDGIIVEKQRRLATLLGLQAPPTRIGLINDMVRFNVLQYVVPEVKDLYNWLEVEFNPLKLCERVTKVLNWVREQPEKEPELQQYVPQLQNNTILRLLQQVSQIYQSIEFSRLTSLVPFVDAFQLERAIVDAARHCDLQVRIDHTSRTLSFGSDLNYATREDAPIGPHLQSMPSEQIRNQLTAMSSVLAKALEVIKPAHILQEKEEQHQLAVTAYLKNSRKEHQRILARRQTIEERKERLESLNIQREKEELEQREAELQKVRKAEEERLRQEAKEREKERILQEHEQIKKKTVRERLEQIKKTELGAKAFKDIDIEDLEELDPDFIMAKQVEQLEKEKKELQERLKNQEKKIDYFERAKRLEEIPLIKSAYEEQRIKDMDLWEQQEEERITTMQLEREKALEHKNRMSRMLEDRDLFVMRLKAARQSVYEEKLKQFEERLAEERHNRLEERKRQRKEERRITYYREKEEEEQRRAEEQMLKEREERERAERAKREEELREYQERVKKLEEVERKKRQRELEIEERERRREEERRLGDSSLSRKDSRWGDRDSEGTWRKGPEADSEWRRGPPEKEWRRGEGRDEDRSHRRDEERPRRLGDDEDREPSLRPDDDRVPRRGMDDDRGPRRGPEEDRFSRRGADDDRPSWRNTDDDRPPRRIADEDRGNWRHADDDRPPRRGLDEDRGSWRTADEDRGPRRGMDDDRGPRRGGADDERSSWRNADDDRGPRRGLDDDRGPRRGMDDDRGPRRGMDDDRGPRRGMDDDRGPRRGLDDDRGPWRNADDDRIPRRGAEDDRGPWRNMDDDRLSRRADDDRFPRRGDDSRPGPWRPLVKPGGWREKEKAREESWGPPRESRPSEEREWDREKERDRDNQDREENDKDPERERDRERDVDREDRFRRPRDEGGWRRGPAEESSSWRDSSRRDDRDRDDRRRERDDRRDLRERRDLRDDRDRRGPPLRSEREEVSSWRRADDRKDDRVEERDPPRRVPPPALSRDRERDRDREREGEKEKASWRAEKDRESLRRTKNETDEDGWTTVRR

Legend:
Assay in all cases: log2 fold change, soluble protein after heating vs DMSO (PISA); higher = thermal stabilisation; K562 lysate, 10 uM; active = over 0.2 and 3.5 SD of the protein, either way, in both replicates (recomputed)
[1] = compound: CS(=O)(=O)CCNCc1ccc(-c2ccc3ncnc(Nc4ccc(OCc5cccc(F)c5)c(Cl)c4)c3c2)o1 [lapatinib]
Summary of the method: (§1)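 A 30 min treatment with 10 μM compound was applied to crude K562 extract at 1 mg/mL protein in PBS pH 7.4 with 1 mM MgCl2. Heating for 3 min spanned 48°C-58°C, after which aliquots were pooled, adjusted to 0.5% NP-40 at 4°C and spun at 21,000xg for 90 min. TMTpro 16plex LC-MS/MS of the supernatant, with channel sums equalised, gave values recorded as log-two fold change in thermal stability against solvent controls, from duplicates.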

[2] = compound: CS(=O)(=O)N1CCN(Cc2cc3nc(-c4cccc5[nH]ncc45)nc(N4CCOCC4)c3s2)CC1 [pictilisib]
Summary of the method: as §1

[3] = compound: C[C@@H](Oc1cc(-c2cnn(C3CCNCC3)c2)cnc1N)c1c(Cl)ccc(F)c1Cl [crizotinib]
Summary of the method: as §1

[4] = compound: C[C@H](C1=CC=C(C=C1)C(=O)NC2=C3C=CNC3=NC=C2)N
Summary of the method: as §1

[5] = compound: C[C@H](Nc1ncnc2nc[nH]c12)c1cc2cccc(Cl)c2c(=O)n1-c1ccccc1 [duvelisib]
Summary of the method: as §1

[6] = compound: Cc1cc(Nc2cc(CN3CCOCC3)c3nc(C)c(Cc4ccc(Cl)cc4F)n3n2)n[nH]1 [gandotinib]
Summary of the method: as §1

[7] = compound: Cc1cc(Nc2cc(N3CCN(C)CC3)nc(Sc3ccc(NC(=O)C4CC4)cc3)n2)n[nH]1 [tozasertib]
Summary of the method: as §1

[8] = compound: Cc1ccc(-n2nc(C(C)(C)C)cc2NC(=O)Nc2ccc(OCCN3CCOCC3)c3ccccc23)cc1 [doramapimod]
Summary of the method: as §1

[9] = compound: Cc1ccc(NC(=O)c2ccc(CN3CC[C@H](N(C)C)C3)c(C(F)(F)F)c2)cc1Nc1nccc(-c2cncnc2)n1 [bafetinib]
Summary of the method: as §1

[10] = compound: Cc1cccc(CC(=O)N2CCc3c2ccc(-c2cn(C)c4ncnc(N)c24)c3F)n1
Summary of the method: as §1

[11] = compound: Cc1cn(-c2cc(NC(=O)c3ccc(C)c(Nc4nccc(-c5cccnc5)n4)c3)cc(C(F)(F)F)c2)cn1 [nilotinib]
Summary of the method: as §1

[12] = compound: Cc1nc(Nc2n[nH]c3c2CN(C(=O)N[C@H](CN(C)C)c2ccccc2)C3(C)C)c2sccc2n1
Summary of the method: as §1

[13] = compound: Cc1nc(Nc2ncc(C(=O)Nc3c(C)cccc3Cl)s2)cc(N2CCN(CCO)CC2)n1 [dasatinib]
Summary of the method: as §1

[14] = compound: Cc1ncc(-c2ccnc(Nc3ccc(S(C)(=O)=O)cc3)n2)n1C(C)C
Summary of the method: as §1

[15] = compound: Cn1cc(-c2ccc3c(c2)CCN3C(=O)Cc2cccc(C(F)(F)F)c2)c2c(N)ncnc21
Summary of the method: as §1

[16] = compound: Cn1cc(CNCC2CCN(c3ncc(C(=O)NO)cn3)CC2)c2ccccc21 [quisinostat]
Summary of the method: as §1

[17] = compound: Cn1cncc1[C@@](N)(c1ccc(Cl)cc1)c1ccc2c(c1)c(-c1cccc(Cl)c1)cc(=O)n2C [tipifarnib]
Summary of the method: as §1

[18] = compound: NC(=O)Nc1cc(-c2cccc(F)c2)sc1C(=O)N[C@H]1CCCNC1
Summary of the method: as §1

[19] = compound: NC(=O)c1cnc(N[C@@H]2CCCC[C@@H]2N)nc1Nc1cccc(-n2nccn2)c1
Summary of the method: as §1

[20] = compound: NC1(c2ccc(-c3nc4ccn5c(=O)[nH]nc5c4cc3-c3ccccc3)cc2)CCC1
Summary of the method: as §1

Measured: log2 fold change

ERBIN isoform 8 (UniProt Q96RT1)
inactive: [1] -0.011 | [2] 0.012 | [3] -0.026 | [4] -0.056 | [5] 0.005 | [6] 0.012 | [7] -0.013 | [8] 0.02 | [9] -0.002 | [10] 0.029 | [11] 0.012 | [12] -0.027 | [13] 0.051 | [14] -0.015 | [15] 0.018 | [16] -0.029 | [17] -0.005 | [18] 0.018 | [19] 0 | [20] 0.001

EIF3G (UniProt K7ER90)
inactive: [1] 0 | [2] -0.223 | [3] -0.255 | [4] -0.219 | [5] -0.004 | [6] 0 | [7] -0.046 | [8] 0.137 | [9] -0.033 | [10] 0.19 | [11] -0.028 | [12] -0.079 | [13] -0.025 | [14] 0.036 | [15] 0.026 | [16] -0.314 | [17] -0.055 | [18] -0.005 | [19] 0.05 | [20] -0.033

EIF5A2 (UniProt Q9GZV4)
inactive: [1] 0.028 | [2] -0.073 | [3] -0.112 | [4] -0.246 | [5] 0.052 | [6] 0.068 | [7] -0.006 | [8] 0.053 | [9] -0.033 | [10] 0.004 | [11] 0.077 | [12] 0.034 | [13] -0.014 | [14] -0.005 | [15] 0 | [16] -0.251 | [17] 0.009 | [18] -0.002 | [19] 0.007 | [20] 0.028

EIF2D (UniProt P41214)
inactive: [1] -0.002 | [2] -0.014 | [3] -0.067 | [4] 0.024 | [5] 0.022 | [6] -0.084 | [7] 0.029 | [8] 0.032 | [9] -0.063 | [10] -0.01 | [11] -0.034 | [12] 0.028 | [13] -0.027 | [14] -0.009 | [15] 0.002 | [16] -0.064 | [17] 0.024 | [18] 0.04 | [19] 0.008 | [20] -0.041

ERCC2 (UniProt P18074)
inactive: [1] 0.002 | [2] -0.031 | [3] -0.015 | [4] 0.053 | [5] -0.017 | [6] -0.114 | [7] -0.025 | [8] 0.018 | [9] -0.034 | [10] -0.051 | [11] -0.036 | [12] -0.016 | [13] -0.022 | [14] 0.029 | [15] 0.039 | [16] -0.057 | [17] -0.02 | [18] 0.049 | [19] 0.009 | [20] -0.016

EIF3I (UniProt Q13347)
inactive: [1] -0.009 | [2] -0.015 | [3] -0.004 | [4] -0.003 | [5] -0.009 | [6] -0.022 | [7] 0.008 | [8] 0.029 | [9] -0.052 | [10] 0.01 | [11] 0.022 | [12] -0.004 | [13] -0.018 | [14] 0.013 | [15] 0.044 | [16] -0.009 | [17] 0.018 | [18] 0.036 | [19] 0 | [20] -0.013

EIPR1 (UniProt Q53HC9)
inactive: [1] -0.001 | [2] -0.009 | [3] -0.01 | [4] -0.028 | [5] 0.001 | [6] 0.009 | [7] 0.017 | [8] 0.016 | [9] 0.018 | [10] 0.049 | [11] 0.078 | [12] -0.043 | [13] -0.048 | [14] 0.02 | [15] 0.042 | [16] 0.021 | [17] -0.001 | [18] -0.013 | [19] 0.027 | [20] -0.013

ERCC5 (UniProt P28715)
inactive: [1] 0.005 | [2] -0.034 | [3] -0.003 | [4] -0.018 | [5] 0.009 | [6] 0.038 | [7] -0.033 | [8] -0.027 | [9] -0.068 | [10] 0.005 | [11] -0.002 | [12] -0.054 | [13] 0.044 | [14] 0.011 | [15] 0.031 | [16] 0.029 | [17] -0.027 | [18] 0.023 | [19] 0.001 | [20] -0.028

EIF4ENIF1 isoform 3 (UniProt Q9NRA8)
inactive: [1] 0.072 | [2] 0.024 | [3] 0.011 | [4] -0.03 | [5] 0.019 | [6] 0.047 | [7] 0.072 | [8] -0.048 | [9] 0.042 | [10] 0.028 | [11] 0.023 | [12] 0.021 | [13] -0.048 | [14] -0.031 | [15] 0.046 | [16] -0.056 | [17] -0.003 | [18] 0.056 | [19] 0.014 | [20] 0.07

ENO1 isoform 2 (UniProt P06733)
inactive: [1] 0.005 | [2] -0.012 | [3] -0.019 | [5] 0.049 | [6] 0.153 | [7] 0.026 | [8] -0.019 | [9] 0.07 | [10] 0.222 | [11] 0.01 | [12] -0.009 | [13] 0.021 | [14] -0.036 | [15] -0.012 | [16] -0.038 | [17] 0.035 | [18] -0.007 | [19] -0.008 | [20] 0.004
active: [4] -0.285

ELP5 isoform 4 (UniProt Q8TE02)
inactive: [1] 0.035 | [2] 0.007 | [3] -0.022 | [4] -0.072 | [5] -0.005 | [6] 0.091 | [7] -0.065 | [8] 0.072 | [9] -0.014 | [10] 0.077 | [11] 0.006 | [12] 0.007 | [13] -0.025 | [14] -0.032 | [15] 0.022 | [16] -0.093 | [17] -0.041 | [18] 0.009 | [19] 0.008 | [20] -0.026

EP400P1 isoform 6 (UniProt Q6ZTU2)
inactive: [1] 0.04 | [2] -0.002 | [3] 0.012 | [4] -0.151 | [5] -0.045 | [6] 0 | [7] 0.023 | [8] -0.035 | [9] 0.116 | [10] 0.035 | [11] 0.15 | [12] -0.003 | [13] 0.002 | [14] -0.026 | [15] 0.052 | [16] -0.03 | [17] 0.021 | [18] -0.03 | [19] 0.13 | [20] -0.126

ENTPD5 (UniProt O75356)
inactive: [1] -0.023 | [2] 0.001 | [3] 0.032 | [4] 0.066 | [5] -0.037 | [6] 0.038 | [7] -0.037 | [8] -0.019 | [9] -0.066 | [10] 0.019 | [11] 0.092 | [12] 0.048 | [13] -0.045 | [14] 0.022 | [15] 0.049 | [16] -0.012 | [17] -0.062 | [18] 0.01 | [19] 0.012 | [20] -0.006

EIF3J (UniProt O75822)
inactive: [1] -0.002 | [2] 0.024 | [3] 0.027 | [4] -0.03 | [5] 0.044 | [6] 0.007 | [7] 0.006 | [8] 0.019 | [9] -0.009 | [10] -0.012 | [11] 0 | [12] 0.001 | [13] 0.003 | [14] 0.022 | [15] -0.015 | [16] -0.005 | [17] 0.024 | [18] -0.016 | [19] -0.011 | [20] -0.009

2 records drawn at random from the list so far, as already listed:
EIF3I (UniProt Q13347)
inactive: [1] -0.009 | [2] -0.015 | [3] -0.004 | [4] -0.003 | [5] -0.009 | [6] -0.022 | [7] 0.008 | [8] 0.029 | [9] -0.052 | [10] 0.01 | [11] 0.022 | [12] -0.004 | [13] -0.018 | [14] 0.013 | [15] 0.044 | [16] -0.009 | [17] 0.018 | [18] 0.036 | [19] 0 | [20] -0.013

ENTPD5 (UniProt O75356)
inactive: [1] -0.023 | [2] 0.001 | [3] 0.032 | [4] 0.066 | [5] -0.037 | [6] 0.038 | [7] -0.037 | [8] -0.019 | [9] -0.066 | [10] 0.019 | [11] 0.092 | [12] 0.048 | [13] -0.045 | [14] 0.022 | [15] 0.049 | [16] -0.012 | [17] -0.062 | [18] 0.01 | [19] 0.012 | [20] -0.006

The listing continues:

EPB41, A0A2R8Y6D0
inactive: [1] 0.008 | [2] -0.14 | [3] -0.085 | [4] -0.037 | [5] -0.086 | [6] 0.031 | [7] 0.068 | [8] -0.051 | [9] -0.031 | [10] -0.003 | [11] -0.033 | [12] 0.312 | [13] 0.091 | [14] -0.044 | [15] -0.021 | [16] -0.017 | [17] -0.055 | [18] 0.043 | [19] -0.042 | [20] -0.054

EIF3A (UniProt Q14152)
inactive: [1] -0.009 | [2] 0.023 | [3] -0.037 | [4] -0.009 | [5] -0.031 | [6] -0.102 | [7] 0.009 | [8] 0.033 | [9] -0.043 | [10] 0.027 | [11] -0.006 | [12] 0.008 | [13] -0.031 | [14] -0.014 | [15] -0.01 | [16] 0.037 | [17] 0.008 | [18] 0.039 | [19] -0.005 | [20] -0.035
